Reference: PubChem BioAssay AID743121 (NCATS, 2013)
This is an unselected part of about 26,000 reagents. In the full data, 167 (0.63%) were called active. 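Calls are per gene from RSA p-values that are not deposited; an individual active-marked siRNA can sensitise only weakly.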 The numbers tell different reagents against one gene apart. Further read-outs or replicates are left out here.

Aim: 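Partners whose loss is lethal together with topoisomerase I blockade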 (primary screen)
System: MDA-MB-231 cells, a human breast cancer line
Knock-down reagent: single siRNA against human genes, 20 nM siRNA (0.8 pmol per well)
Duration: 120 h (drug added 48 h after transfection, read 72 h later)
Treatment: camptothecin 20 nM (about EC30) for 72 h; vehicle 0.1% DMSO in parallel plates
Measurement: 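Cell viability by ATP luminescence (CellTiter-Glo) as % of non-targeting siRNA wells, and the log2 ratio of viability without drug over viability with camptothecin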
Direction: log2 vehicle/camptothecin viability: higher = stronger sensitisation to camptothecin
Rule for the call: 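Active genes have an RSA gene-level p-value below 0.001, computed from the ratios of their separate siRNAs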

Silencing of TNFRSF10A (TNF receptor superfamily member 10a) #1 came out at: log2 vehicle/camptothecin viability 0.766; inactive.
Against TNFRSF10A (TNF receptor superfamily member 10a) #2 the deposit lists log2 vehicle/camptothecin viability -0.141; inactive.
For TNFRSF10A (TNF receptor superfamily member 10a) #3, the values are log2 vehicle/camptothecin viability -0.108; inactive.
Silencing of TNFRSF10A (TNF receptor superfamily member 10a) #4 resulted in: log2 vehicle/camptothecin viability -0.0739; inactive.
Depletion of IFT57 (intraflagellar transport 57) #1 gave: log2 vehicle/camptothecin viability 0.259; inactive.
For IFT57 (intraflagellar transport 57) #2, the entry reads log2 vehicle/camptothecin viability -0.554; inactive.
With knock-down of IFT57 (intraflagellar transport 57) #3, the screen gave log2 vehicle/camptothecin viability -0.0872; inactive.
IFT57 (intraflagellar transport 57) #4 showed log2 vehicle/camptothecin viability -0.0897; inactive.
Against IL36A (interleukin 36 alpha) #1 the deposit lists log2 vehicle/camptothecin viability 0.015; inactive.
IL36A (interleukin 36 alpha) #2 showed log2 vehicle/camptothecin viability -0.341; inactive.
After knock-down of IL36A (interleukin 36 alpha) #3, the screen gave log2 vehicle/camptothecin viability 0.0713; inactive.
MKRN3 (makorin ring finger protein 3) #1 showed log2 vehicle/camptothecin viability -0.299; inactive.
MKRN3 (makorin ring finger protein 3) #2 showed log2 vehicle/camptothecin viability 0.0438; inactive.
Against PTPN4 (protein tyrosine phosphatase non-receptor type 4) #1, the entry reads log2 vehicle/camptothecin viability -0.288; inactive.
PTPN4 (protein tyrosine phosphatase non-receptor type 4) #2 scored log2 vehicle/camptothecin viability -0.122; inactive.
PTPN4 (protein tyrosine phosphatase non-receptor type 4) #3 scored log2 vehicle/camptothecin viability -0.111; inactive.
PTPN4 (protein tyrosine phosphatase non-receptor type 4) #4 gave log2 vehicle/camptothecin viability -0.162; inactive.
DOCK1 (dedicator of cytokinesis 1) #1 showed log2 vehicle/camptothecin viability -0.178; inactive.
For DOCK1 (dedicator of cytokinesis 1) #2, the values are log2 vehicle/camptothecin viability 0.0648; inactive.
DOCK1 (dedicator of cytokinesis 1) #3 showed log2 vehicle/camptothecin viability -0.315; inactive.
DOCK1 (dedicator of cytokinesis 1) #4 showed log2 vehicle/camptothecin viability -0.0437; inactive.
Knock-down of INTS12 (integrator complex subunit 12) #1 came out at: log2 vehicle/camptothecin viability -0.438; inactive.
Against INTS12 (integrator complex subunit 12) #2 the deposit lists log2 vehicle/camptothecin viability -0.413; inactive.
INTS12 (integrator complex subunit 12) #3 gave log2 vehicle/camptothecin viability 0.0898; inactive.
After knock-down of INTS12 (integrator complex subunit 12) #4, the screen gave log2 vehicle/camptothecin viability -0.338; inactive.
RTN4RL2 (reticulon 4 receptor like 2) #1 scored log2 vehicle/camptothecin viability 0.0582; inactive.
Against RTN4RL2 (reticulon 4 receptor like 2) #2 the deposit lists log2 vehicle/camptothecin viability 0.11; inactive.
With knock-down of RTN4RL2 (reticulon 4 receptor like 2) #3, the record shows log2 vehicle/camptothecin viability 0.086; inactive.
Silencing of RTN4RL2 (reticulon 4 receptor like 2) #4 resulted in: log2 vehicle/camptothecin viability -0.16; inactive.
Against HHIPL1 (HHIP like 1) #1, the values are log2 vehicle/camptothecin viability -0.224; inactive.
Against HHIPL1 (HHIP like 1) #2, the values are log2 vehicle/camptothecin viability -0.313; inactive.
Depletion of HHIPL1 (HHIP like 1) #3 resulted in: log2 vehicle/camptothecin viability -0.485; inactive.
HHIPL1 (HHIP like 1) #4 gave log2 vehicle/camptothecin viability -0.00551; inactive.
Against HTR7 (5-hydroxytryptamine receptor 7) #1 the deposit lists log2 vehicle/camptothecin viability 0.272; inactive.
Against HTR7 (5-hydroxytryptamine receptor 7) #2, the values are log2 vehicle/camptothecin viability -0.111; inactive.
After knock-down of HTR7 (5-hydroxytryptamine receptor 7) #3, the record shows log2 vehicle/camptothecin viability 0.342; inactive.
After knock-down of HTR7 (5-hydroxytryptamine receptor 7) #4, the screen gave log2 vehicle/camptothecin viability -0.18; inactive.
